The results in this text go back to patent US20230331840A1.

By UniProt entry, the sequences of proteins in these tests, tags left out. Where a name states a change or a piece, a line headed by the entry shows the natural chain unless it says otherwise. Residues count along the entry.
UniProt P20273: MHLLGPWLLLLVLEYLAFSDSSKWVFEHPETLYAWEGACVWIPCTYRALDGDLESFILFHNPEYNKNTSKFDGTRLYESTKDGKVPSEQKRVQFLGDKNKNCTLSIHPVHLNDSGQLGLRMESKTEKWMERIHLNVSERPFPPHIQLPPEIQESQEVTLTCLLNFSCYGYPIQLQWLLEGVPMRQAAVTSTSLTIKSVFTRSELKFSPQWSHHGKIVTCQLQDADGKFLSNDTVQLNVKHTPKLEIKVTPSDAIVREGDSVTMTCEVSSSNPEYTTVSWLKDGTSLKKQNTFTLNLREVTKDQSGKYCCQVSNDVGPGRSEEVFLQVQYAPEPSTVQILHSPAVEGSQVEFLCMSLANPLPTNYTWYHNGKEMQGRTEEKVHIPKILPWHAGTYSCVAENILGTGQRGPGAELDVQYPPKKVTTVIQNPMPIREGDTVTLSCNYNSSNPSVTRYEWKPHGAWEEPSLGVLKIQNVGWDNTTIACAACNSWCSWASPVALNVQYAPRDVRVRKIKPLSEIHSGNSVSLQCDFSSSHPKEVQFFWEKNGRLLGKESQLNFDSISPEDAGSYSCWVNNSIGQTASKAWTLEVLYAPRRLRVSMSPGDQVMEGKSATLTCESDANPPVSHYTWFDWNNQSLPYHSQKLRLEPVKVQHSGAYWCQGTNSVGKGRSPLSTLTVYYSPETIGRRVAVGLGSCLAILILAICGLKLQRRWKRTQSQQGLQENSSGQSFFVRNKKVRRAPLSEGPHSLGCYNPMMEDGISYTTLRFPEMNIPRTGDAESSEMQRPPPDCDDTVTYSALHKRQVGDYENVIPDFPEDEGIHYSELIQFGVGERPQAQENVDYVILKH
CD22 on B cells of PBMC from volunteers: residues 20-847 of P20273
Human CD22 extracellular segment conjugated His label: residues 20-687 of P20273

No constants are given. Whether binding was seen depends on the method and setting. Some results given as binding are weak or reduced against the parent protein; the word gives no strength.

In experiment [1] the target is CD22 on B cells of PBMC from volunteers (human) (UniProt P20273). As to the kind of experiment: flow cytometry on PBMC from volunteers, antibody 10 µg/ml, Goat anti Mouse IgG-PE, anti-hCD19-APC counterstain. For orientation: A flow cytometer gives signals particle by particle.
The target of experiment [2] is Human CD22 extracellular segment conjugated His label (human) (UniProt P20273). As to the kind of experiment: ELISA, h CD22-His coated at 2 µg/ml, antibody in 3-fold dilutions. For orientation: ELISA stands for enzyme-linked immunosorbent assay.

B1: CD22 antibody FC2-201 (antibody, IgG2b, V domains shown)
VH: KVQLQQSGAGLVKPGASVKLSCKASGYTFTDSILHWLMQRSGQGLEWIGWFYPGSGSIKYNEKFKDKATLTADKSSSTVYMELSRLTSEDSAFYFCARHEDGYDGFAYWGQGTLVTVSA
VL: ENVLTQSPAIMSASLGEKVTMSCRASSSVNYIFWYQQKSDASPKLWIYYTSNLAPGVPARFSGSGSGNSYSLTISSMEGEDAATYYCQQFTSSPFTFGSGTKLEIKR
Turning to B1, the binding entry in experiment [1] is “binds”.

B2: CD22 antibody FC2-070 (antibody, IgG2b, V domains shown)
VH: QVQLQQPGAELVKPGTSVKLSCKASGYNFTSYWINWVKLRPGQGLEWIGDIYPGSGNTNYNEKFKSKATLTVDTSSTTAYMQLSSLASEDSALYYCARRGYLDYWGQGTTLTVSS
VL: DIQMTQSPASLSASVGETVTITCRASGNIHNYLAWYQQKQGKSPQLLVYNAKTLADGVPSRFSGSGSGTQYSLTINSLQPEDFGSYYCQHFWSTPLTFGAGTKLELKR
For B2, the binding entry in experiment [2] and in experiment [1] was “binds” in each case.

B3: CD22 antibody FC2-153 (antibody, IgG1, V domains shown)
VH: QVQLQQSGAELMKPGASVKISCKATGYTFSSYWIEWVKQRPGHGLEWIGEILPGSGSTNYNEKFKGKATFTADTSSNTAYMQLSSLTSEDSAVYYCARWGQLGLFYAMDYWGQGTSVTVSS
VL: DIQMTQSPASLSASVGETVTITCRASENIYSYLAWYQQKQGKSPQLLVYNAKTLAEGVPSRFSGSGSGTQFSLKINSLQPEDFGSYYCQHHYGSPLTFGAGTKLELKR
As for B3, the binding result in experiment [2] and in experiment [1] was “binds” each time.

B4: CD22 antibody FC2-117 (antibody, IgG1, V domains shown)
VH: DVQLQESGPGLVKPSQSLSLTCSVTGYSITSGYYWNWIRQFPGNKLEWMGYISYDGSNNYNPSLKNRISITRDTSKNQFFLKLNSVTTEDTATYYCTKGGYGYYFDYWGQGTTLTVSS
VL: DIQMTQSPASLSASVGETVTITCRASGNIHNYLAWYQQKQGKSPQLLVYNAKTLADGVPSRFSGSGSGTQYSLKINSLQPEDFGSYYCQHFWSTPPTFGGGTKLEIKR
For B4, the binding entry in experiment [1] is reported as “binds”.

B5: CD22 antibody FC2-203 (antibody, IgG1, V domains shown)
VH: QVQLQQPGAELVRPGASVKLSCKASGYTFSSYWINWVKQRPGQGLEWIGNIYPSDSYTNYNQKFKDKATLTVDKSSSTAYMQLSSPTSEDSAVYYCTREGHYYGSFGAMDYWGQGTSVTVSS
VL: DVQITQSPSYLAASPGETITINCRASKTISKYLAWYQEKPGKTNKLLIYSGSTLQSGIPSRFSGSGSGTDFTLTISSLEPEDFAMYYCQQHNEYPWTFGGGTKLEIKR
As to B5, the binding result in experiment [2] and in experiment [1] was “binds” each time.
